Primary screen of a compound library

Sequences of proteins named here, by UniProt entry; tags and fusion partners are left off.
UniProt P9WPC5, whole entry: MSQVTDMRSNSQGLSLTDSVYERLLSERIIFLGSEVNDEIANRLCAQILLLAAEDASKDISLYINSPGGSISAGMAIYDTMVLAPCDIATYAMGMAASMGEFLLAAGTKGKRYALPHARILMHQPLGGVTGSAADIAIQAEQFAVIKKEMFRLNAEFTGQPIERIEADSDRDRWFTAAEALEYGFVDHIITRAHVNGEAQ
UniProt P9WPC3, whole entry partner: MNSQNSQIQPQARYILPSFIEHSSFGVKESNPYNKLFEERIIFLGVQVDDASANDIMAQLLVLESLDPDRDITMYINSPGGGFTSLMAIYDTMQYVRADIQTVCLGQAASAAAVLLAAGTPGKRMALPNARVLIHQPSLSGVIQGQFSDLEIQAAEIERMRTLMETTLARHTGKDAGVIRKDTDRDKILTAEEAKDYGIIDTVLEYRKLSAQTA
UniProt I6X8D2, whole entry: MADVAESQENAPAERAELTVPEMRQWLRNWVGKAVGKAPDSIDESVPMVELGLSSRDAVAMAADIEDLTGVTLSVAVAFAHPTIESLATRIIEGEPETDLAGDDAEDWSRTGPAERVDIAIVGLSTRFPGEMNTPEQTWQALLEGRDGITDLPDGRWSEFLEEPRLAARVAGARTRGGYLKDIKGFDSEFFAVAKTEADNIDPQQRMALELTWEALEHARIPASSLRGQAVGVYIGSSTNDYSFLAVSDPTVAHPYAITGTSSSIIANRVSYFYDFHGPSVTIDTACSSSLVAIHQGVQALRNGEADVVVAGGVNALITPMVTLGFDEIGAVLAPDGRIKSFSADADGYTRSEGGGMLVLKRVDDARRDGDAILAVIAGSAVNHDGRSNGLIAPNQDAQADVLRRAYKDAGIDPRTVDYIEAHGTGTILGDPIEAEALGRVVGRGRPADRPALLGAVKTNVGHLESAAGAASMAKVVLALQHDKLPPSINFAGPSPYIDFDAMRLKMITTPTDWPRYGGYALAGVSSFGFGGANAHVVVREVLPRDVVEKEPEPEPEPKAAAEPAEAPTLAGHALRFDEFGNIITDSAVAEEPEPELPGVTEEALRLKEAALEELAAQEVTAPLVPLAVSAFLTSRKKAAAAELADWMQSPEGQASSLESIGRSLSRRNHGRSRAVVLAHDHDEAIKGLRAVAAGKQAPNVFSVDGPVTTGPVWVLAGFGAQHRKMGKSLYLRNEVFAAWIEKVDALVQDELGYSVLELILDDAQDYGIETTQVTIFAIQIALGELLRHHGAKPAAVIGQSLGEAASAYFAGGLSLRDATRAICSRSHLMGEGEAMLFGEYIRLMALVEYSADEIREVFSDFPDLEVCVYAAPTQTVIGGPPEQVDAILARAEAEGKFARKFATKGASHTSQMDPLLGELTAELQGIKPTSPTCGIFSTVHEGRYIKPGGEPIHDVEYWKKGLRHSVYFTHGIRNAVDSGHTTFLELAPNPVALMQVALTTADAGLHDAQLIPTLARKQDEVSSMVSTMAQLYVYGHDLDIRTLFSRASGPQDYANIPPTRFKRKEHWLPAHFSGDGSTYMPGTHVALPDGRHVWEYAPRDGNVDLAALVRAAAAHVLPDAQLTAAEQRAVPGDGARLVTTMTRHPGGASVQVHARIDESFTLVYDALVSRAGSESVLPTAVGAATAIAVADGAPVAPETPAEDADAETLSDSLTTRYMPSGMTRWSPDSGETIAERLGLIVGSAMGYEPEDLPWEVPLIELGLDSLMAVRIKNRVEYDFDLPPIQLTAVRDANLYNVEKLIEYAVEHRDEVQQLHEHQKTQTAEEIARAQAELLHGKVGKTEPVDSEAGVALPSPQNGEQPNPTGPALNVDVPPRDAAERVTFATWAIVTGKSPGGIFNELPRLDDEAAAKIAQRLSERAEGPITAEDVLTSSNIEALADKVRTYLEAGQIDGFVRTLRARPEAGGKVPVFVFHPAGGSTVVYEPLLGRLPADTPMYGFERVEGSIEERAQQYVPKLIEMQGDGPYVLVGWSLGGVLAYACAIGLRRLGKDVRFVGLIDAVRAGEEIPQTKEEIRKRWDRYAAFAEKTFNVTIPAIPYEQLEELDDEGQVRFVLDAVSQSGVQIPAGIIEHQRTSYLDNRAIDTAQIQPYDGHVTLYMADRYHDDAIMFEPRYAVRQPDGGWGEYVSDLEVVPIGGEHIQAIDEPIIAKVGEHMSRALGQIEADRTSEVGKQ

From ChEMBL document CHEMBL3988442, “University of Dundee, Small-Polar-MMV Screening Library” (2021).

ClpP1P2: 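Protease assay of ClpP1P2, read by the AMC dye that it sets free. Target: ClpP1P2, Mycobacterium tuberculosis (UniProt P9WPC5 and UniProt P9WPC3). Compounds at 50 µM. Direction is inferred from only a few compounds that gave an IC50; most scored high, so higher reads as stronger inhibition. Most other retested compounds had strongly negative values. Size under these conditions: about 69,000 compounds, about 10 of them at 50% or above in at least one test.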
Pks13 thioesterase: 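Enzyme assay of the thioesterase domain of polyketide synthase 13; the read-out is not stated. Target: Polyketide synthase Pks13, Mycobacterium tuberculosis (UniProt I6X8D2). Concentration: 30 µM. The record gives no direction; the compounds picked for IC50 retests had high values, so higher reads as stronger inhibition. Of about 67,000 compounds tested this way, about 300 (0.46%) reached 50% or more in at least one test.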

Values are the deposited “Percent Effect”, in %. The record does not define 0% and 100%; most values in the screen are far below 50% and negative numbers occur (in some assays of this library far below -100). The compounds are a random part of those screened. A dash means the value is not listed here; it may have been measured.

Compound	ClpP1P2	Pks13 thioesterase
NC(=O)C1CCN(S(=O)(=O)c2cnn(-c3ccccc3)c2)CC1	6.181	-4.408
CCc1cc(=O)[nH]c2nnc(SCC(=O)N3CCC(C)CC3)n12	22.05	-20.2
CC(OCc1ccccc1)C(=O)NC1CCN(CC(N)=O)CC1 (stereo not given)	-3.862	9.392
O=C1CCNc2ncc(-c3ccc(Cl)cc3)cc2CN1C1CC1	-1.736	10.51
COc1cc(-c2n[nH]c(CO)n2)cc(OC)c1OC	22.29	-13.33
Cn1cc(-c2nc(CN3CCc4c(ncn4C4CC4)C3)cs2)cn1	-4.779	-13.8
O=C(CCc1nc2cc(Br)cnc2[nH]1)NCCCN1CCOCC1	-9.793	-6.285
CN(C)C(=O)NCc1cc2n(n1)CCCN(CC1CCCNC1)C2 (stereo not given)	-9.65	10.23
Cc1nnc(CN2CCC(Oc3ccc(F)cc3)CC2)o1	0.6148	25.4
Cc1csc(C2(NC(=O)CCNC(=O)C(C)(C)C)CCCC2)n1	8.391	-9.077
COCC1CN(C(=O)c2ccoc2C)Cc2nccn2C1 (stereo not given)	7.526	-37.88
CN1CCOC(CNCc2nc(-c3ccccc3)cs2)C1 (stereo not given)	-3.134	-31.61
Cc1nc(C)n(CC2CCCN(CCC(=O)N3CCOCC3)C2)n1 (stereo not given)	-24.96	-22.5
COc1ccc(C(=O)CCc2nc(C3CC3)no2)cc1F	-5.234	-9.155
Cc1ccc(CN[C@@H]2COC[C@H]2Cc2cc(C)no2)cc1	-5.187	-1.699
CCCN1CCC(Cc2nn3c(C(C)C)nnc3s2)CC1	-1.135	37.76
COCCN1CCC(CNC(=O)Nc2ccc(-c3ccccc3)cc2)C1 (stereo not given)	-4.506	-0.409
CCN1CCC2(C1)CN(S(=O)(=O)c1cn(C)cn1)C2	-0.6736	-8.156
O=C1CN(C(=O)C2CCCCC2)CC(O)CN1Cc1ccco1 (stereo not given)	-0.5396	14.9
CCOCc1nnc(NCc2cccnc2)o1	-9.565	-22.41
CCOc1cccc(C(=O)Nc2ccn(CC)n2)c1	-17.68	-19.58
Cc1nn(-c2ccccc2)c(C)c1-c1ccnc(N2CCCOCC2)n1	-7.993	-30.67
Cc1cccc2nc(CNCc3cccc4c3OCCCO4)cn12	-18.32	-7.943
O=C(NCC(O)COc1ccccc1)Nc1nncs1 (stereo not given)	-1.116	-10.15
N#Cc1c(C2CC2)cc(-c2ccc(O)cc2)nc1N	-110.1	44.38
CC1CN(Cc2ccccc2)CCCN1CCCS(C)(=O)=O (stereo not given)	-3.34	-7.724
COc1ccc(O[C@H]2COCCN(Cc3c[nH]c4ccccc34)C2)cc1	1.859	-26.21
CN1CC[C@]2(CN(S(C)(=O)=O)C[C@H]2c2ccccc2)C1=O	8.995	-17.53
Cc1ccc(NC(=O)CCc2cnn(C)c2)cc1F	-2.607	2.832
Cc1cc(CN(C)C(=O)c2ccc(OC(C)C)nc2)no1	-22.09	-24.04
CCn1cc(NC(=O)NCC(O)CN2CCc3ccccc3C2)cn1 (stereo not given)	21.09	-30.1
N#Cc1ccnc(N2CCN(CC(O)c3c(F)cccc3F)CC2)c1 (stereo not given)	-8.54	-3.535
CCC(CNC(=O)c1ccccc1OC)N1CCc2ccccc2C1 (stereo not given)	7.608	-14.73
COc1ccc2cc(C(=O)NCCNc3ccc(C)nn3)[nH]c2c1	-13.61	-7.894
c1ccc(C(Cn2cccn2)Nc2cnccn2)cc1 (stereo not given)	-9.848	-25.14
CCc1cc(N(C)Cc2c(C)nn(C)c2C)n2nccc2n1	-13.53	-0.3502
Cc1cccc(CN2C[C@@H]3COC[C@]3(CNC(=O)N3CCCC3)C2)n1	0.3258	-7.01
CN1C(=O)C2(CCN(c3nccc4occc34)CC2)c2ccccc21	-15.66	-3.498
C=C(C)CN1CCN(CCC(=O)Nc2ccccc2C(N)=O)CC1	-8.156	21.4
CC(C)c1nccn1C1CCCN(C(=O)c2ccc3[nH]nnc3c2)C1 (stereo not given)	6.691	-38.1
O[C@@H]1CN(c2noc(C3CC3)n2)CC[C@H]1c1ccc2ccccc2c1	-14.9	-33.88
Cc1nc(-c2ccncc2)ncc1C(C)NC(=O)CN1CCCCC1 (stereo not given)	-7.592	-8.766
CC(O)CN1CCN(C(=O)CCOc2ccccc2F)CC1 (stereo not given)	-6.766	0.5859
Cc1ccc(CN2CCC3(CC2)CC(N2CCN(C)CC2)CO3)s1 (stereo not given)	-1.115	-9.795
COc1ccnc(N2CCN(C(=O)Cc3ccsc3)CC2)n1	-51.05	-3.185
Clc1ccc(CN2CCC3(CC2)CC(c2cccnc2)=NO3)cc1	-0.1267	-15.43
CN1CCN(c2ncc(-c3cnccn3)c([C@H]3CCCO3)n2)CC1	-5.94	-3.72
CC(C)c1noc(C2CCN(C(=O)C3CCCO3)CC2)n1 (stereo not given)	0.5947	4.431
CC(C)n1cc(S(=O)(=O)NCCc2nnc3ccccn23)cn1	-8.092	9.095
Cc1ccc(C(C)NC(=O)CCc2cnn(C)c2)cc1F (stereo not given)	-3.72	-0.5185
CC(C)c1nccn1C1CCCN(C(=O)c2ccc3c(c2)OCO3)C1 (stereo not given)	-6.343	-15.09
CCS(=O)(=O)c1ccc(N2CCC(NC(=O)CCC(C)C)CC2)cc1	-18.93	-11.8
CC(C)c1noc(OCC(=O)N(C)C(C)C)n1	-13.25	-10.78
CC(C)c1noc(CCC(=O)N(CC2CCOC2)C2CC2)n1 (stereo not given)	-2.084	-3.666
CC(COc1ccccc1)NCc1nc(-c2cccnc2)no1 (stereo not given)	-1.223	-8.927
CC(=O)N1CCN(Cc2c(C)sc3ccccc23)CC(O)C1 (stereo not given)	-21.45	-15.8
Cc1c(Cl)cccc1NCc1nc2n(n1)CCCCC2	5.433	-23.48
Cc1cnn(CC2CN(Cc3nnc(C(C)C)o3)CCO2)c1 (stereo not given)	-21.82	-12.64
COCCN(Cc1sccc1C)C(=O)c1c(O)cccc1F	-4.633	-
CNC(=O)[C@@H]1C[C@@H](N)CN1c1nc(N2CCCC2)nc(C)c1C	8.91	-12.21
CCCS(=O)(=O)NCCc1ncc(C)s1	-2.613	4.22
CN(CC(=O)N1CCCC1Cn1cccn1)c1cnccn1 (stereo not given)	-5.84	-3.881
CCc1nc(C2CCCN2Cc2nc(C(C)(C)C)no2)no1 (stereo not given)	-11.24	6.074
COCc1cc(N2CCN(Cc3ccncc3)CC2)n2nccc2n1	0.6248	-8.733
Cc1cccc(C(C(=O)N(C)Cc2ccon2)N(C)C)c1 (stereo not given)	0.8343	1.3